Test results published in the supplement of paper PMC12823440, “Inhibitors supercharge kinase turnover through native proteolytic circuits” (Nature, 2025).
Where a name gives a salt, the structure may show the parent alone. The list shows a part of the results. The calls rarely recur for the same compound in another form.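 Kinases, fused to nanoluciferase, were expressed in K562 cells; luminescence was measured every 4 h from 2 to 18 h as percent of control (DMSO = 100%, positive control = 0%). A time point is decreased if signal falls significantly (2 sigma). Hits were called by the authors by a rule that is not shown; the count of time points alone does not decide it.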

Sequences of proteins named here, by UniProt entry; tags and fusion partners are left off. A change or cut given only in a name is not applied to a line headed by its entry.
UniProt P22607, whole entry, looked up: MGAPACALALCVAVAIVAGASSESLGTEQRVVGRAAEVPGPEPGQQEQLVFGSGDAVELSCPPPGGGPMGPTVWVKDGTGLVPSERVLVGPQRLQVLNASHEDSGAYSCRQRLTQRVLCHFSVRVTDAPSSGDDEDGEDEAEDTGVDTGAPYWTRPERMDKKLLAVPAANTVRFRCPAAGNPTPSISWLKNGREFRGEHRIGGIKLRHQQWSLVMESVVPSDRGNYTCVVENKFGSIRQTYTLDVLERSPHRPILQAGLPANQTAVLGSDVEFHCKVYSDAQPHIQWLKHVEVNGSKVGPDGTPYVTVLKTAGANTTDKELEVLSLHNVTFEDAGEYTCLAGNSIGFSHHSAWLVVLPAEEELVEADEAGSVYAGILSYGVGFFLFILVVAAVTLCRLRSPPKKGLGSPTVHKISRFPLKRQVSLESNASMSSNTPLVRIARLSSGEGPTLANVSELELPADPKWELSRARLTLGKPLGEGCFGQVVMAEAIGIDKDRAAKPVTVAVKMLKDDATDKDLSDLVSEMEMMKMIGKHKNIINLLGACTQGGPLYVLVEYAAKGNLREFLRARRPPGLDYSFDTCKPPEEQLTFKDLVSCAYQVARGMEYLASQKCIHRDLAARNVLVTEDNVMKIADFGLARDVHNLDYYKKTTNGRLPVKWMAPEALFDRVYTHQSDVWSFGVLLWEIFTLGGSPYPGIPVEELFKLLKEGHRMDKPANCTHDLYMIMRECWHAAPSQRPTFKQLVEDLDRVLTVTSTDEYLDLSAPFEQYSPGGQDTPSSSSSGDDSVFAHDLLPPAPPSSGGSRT
UniProt P06241, whole entry, looked up: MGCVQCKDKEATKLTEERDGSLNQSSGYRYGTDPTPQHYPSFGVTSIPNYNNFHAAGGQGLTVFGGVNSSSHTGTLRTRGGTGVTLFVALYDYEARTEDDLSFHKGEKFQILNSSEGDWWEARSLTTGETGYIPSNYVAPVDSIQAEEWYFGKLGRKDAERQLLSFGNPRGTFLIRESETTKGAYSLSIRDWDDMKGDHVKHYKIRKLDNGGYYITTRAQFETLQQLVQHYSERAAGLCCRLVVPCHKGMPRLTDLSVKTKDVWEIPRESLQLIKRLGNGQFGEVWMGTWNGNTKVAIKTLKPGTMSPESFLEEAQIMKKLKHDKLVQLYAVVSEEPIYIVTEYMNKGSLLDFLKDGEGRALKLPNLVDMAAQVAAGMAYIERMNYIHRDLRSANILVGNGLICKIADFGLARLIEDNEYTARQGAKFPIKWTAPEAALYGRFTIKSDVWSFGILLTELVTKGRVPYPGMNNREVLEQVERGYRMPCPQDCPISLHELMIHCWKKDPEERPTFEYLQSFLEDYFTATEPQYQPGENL
UniProt P49840: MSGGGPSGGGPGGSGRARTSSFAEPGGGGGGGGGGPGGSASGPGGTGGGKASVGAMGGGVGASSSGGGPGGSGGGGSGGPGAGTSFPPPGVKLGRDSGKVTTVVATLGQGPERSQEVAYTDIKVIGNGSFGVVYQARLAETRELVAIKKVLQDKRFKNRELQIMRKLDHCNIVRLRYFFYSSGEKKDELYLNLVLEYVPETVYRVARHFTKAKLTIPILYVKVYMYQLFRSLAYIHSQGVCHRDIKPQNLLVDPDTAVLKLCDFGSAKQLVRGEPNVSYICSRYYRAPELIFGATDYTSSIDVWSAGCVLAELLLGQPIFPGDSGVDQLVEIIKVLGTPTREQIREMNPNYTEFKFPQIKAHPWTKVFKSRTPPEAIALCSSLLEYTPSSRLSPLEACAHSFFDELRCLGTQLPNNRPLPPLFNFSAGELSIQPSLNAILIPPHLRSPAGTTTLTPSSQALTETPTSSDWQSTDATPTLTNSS
UniProt P23458: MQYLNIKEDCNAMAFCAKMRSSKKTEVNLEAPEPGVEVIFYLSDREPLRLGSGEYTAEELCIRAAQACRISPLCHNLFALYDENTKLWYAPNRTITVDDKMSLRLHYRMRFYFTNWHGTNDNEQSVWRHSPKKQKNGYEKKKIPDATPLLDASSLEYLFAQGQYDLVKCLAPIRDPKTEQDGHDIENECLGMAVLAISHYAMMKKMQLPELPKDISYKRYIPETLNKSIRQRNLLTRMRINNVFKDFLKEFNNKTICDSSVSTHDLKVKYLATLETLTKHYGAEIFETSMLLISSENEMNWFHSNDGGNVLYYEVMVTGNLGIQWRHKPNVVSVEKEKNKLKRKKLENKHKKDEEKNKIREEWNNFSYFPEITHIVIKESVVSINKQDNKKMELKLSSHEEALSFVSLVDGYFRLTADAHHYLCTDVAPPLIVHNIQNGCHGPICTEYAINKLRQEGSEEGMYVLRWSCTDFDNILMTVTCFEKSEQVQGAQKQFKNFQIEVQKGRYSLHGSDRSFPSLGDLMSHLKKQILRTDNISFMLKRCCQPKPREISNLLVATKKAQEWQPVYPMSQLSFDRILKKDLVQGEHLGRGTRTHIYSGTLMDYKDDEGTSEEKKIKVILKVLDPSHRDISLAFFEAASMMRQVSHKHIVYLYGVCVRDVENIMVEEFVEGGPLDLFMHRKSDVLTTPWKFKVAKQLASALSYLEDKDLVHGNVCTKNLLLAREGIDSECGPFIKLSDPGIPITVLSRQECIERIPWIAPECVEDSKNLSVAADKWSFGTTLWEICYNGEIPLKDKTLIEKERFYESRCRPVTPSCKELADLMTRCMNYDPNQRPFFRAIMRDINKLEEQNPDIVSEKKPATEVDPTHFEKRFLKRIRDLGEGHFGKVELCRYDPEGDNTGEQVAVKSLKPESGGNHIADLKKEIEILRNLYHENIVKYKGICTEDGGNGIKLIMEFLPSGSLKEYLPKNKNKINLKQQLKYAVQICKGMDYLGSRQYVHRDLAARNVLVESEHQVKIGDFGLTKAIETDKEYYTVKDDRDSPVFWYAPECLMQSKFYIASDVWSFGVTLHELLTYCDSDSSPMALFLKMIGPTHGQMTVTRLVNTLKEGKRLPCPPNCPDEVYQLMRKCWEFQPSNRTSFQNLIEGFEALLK
UniProt P06239: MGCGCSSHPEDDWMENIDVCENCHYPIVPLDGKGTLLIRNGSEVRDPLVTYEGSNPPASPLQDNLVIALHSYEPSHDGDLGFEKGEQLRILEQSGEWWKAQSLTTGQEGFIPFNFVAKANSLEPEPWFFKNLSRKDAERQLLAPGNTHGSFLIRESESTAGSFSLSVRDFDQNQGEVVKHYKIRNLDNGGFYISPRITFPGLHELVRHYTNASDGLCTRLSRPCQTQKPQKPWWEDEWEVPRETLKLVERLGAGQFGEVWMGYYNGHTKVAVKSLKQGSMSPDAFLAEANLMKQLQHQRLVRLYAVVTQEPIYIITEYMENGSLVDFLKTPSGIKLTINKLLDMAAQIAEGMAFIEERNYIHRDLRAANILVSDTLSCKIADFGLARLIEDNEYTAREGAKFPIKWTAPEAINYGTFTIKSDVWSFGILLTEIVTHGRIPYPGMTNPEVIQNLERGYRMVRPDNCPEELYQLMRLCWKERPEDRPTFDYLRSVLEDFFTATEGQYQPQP
UniProt P53671: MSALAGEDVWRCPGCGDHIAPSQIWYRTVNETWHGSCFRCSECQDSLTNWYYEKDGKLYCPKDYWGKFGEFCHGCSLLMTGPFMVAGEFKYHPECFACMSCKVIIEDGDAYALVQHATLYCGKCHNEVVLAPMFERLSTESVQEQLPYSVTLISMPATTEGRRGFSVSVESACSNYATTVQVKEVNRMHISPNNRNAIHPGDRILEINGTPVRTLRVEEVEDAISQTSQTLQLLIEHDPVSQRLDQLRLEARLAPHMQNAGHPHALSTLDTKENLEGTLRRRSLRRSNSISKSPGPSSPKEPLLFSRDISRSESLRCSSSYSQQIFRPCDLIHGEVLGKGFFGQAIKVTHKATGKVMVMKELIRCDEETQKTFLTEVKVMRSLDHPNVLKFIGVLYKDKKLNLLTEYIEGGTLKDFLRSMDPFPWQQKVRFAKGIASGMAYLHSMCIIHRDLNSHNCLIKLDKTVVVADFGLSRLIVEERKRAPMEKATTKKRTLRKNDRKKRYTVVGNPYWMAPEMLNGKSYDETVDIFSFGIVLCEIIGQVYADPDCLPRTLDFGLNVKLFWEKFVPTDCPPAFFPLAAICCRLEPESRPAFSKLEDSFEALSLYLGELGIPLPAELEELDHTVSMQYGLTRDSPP
UniProt Q8IWU2: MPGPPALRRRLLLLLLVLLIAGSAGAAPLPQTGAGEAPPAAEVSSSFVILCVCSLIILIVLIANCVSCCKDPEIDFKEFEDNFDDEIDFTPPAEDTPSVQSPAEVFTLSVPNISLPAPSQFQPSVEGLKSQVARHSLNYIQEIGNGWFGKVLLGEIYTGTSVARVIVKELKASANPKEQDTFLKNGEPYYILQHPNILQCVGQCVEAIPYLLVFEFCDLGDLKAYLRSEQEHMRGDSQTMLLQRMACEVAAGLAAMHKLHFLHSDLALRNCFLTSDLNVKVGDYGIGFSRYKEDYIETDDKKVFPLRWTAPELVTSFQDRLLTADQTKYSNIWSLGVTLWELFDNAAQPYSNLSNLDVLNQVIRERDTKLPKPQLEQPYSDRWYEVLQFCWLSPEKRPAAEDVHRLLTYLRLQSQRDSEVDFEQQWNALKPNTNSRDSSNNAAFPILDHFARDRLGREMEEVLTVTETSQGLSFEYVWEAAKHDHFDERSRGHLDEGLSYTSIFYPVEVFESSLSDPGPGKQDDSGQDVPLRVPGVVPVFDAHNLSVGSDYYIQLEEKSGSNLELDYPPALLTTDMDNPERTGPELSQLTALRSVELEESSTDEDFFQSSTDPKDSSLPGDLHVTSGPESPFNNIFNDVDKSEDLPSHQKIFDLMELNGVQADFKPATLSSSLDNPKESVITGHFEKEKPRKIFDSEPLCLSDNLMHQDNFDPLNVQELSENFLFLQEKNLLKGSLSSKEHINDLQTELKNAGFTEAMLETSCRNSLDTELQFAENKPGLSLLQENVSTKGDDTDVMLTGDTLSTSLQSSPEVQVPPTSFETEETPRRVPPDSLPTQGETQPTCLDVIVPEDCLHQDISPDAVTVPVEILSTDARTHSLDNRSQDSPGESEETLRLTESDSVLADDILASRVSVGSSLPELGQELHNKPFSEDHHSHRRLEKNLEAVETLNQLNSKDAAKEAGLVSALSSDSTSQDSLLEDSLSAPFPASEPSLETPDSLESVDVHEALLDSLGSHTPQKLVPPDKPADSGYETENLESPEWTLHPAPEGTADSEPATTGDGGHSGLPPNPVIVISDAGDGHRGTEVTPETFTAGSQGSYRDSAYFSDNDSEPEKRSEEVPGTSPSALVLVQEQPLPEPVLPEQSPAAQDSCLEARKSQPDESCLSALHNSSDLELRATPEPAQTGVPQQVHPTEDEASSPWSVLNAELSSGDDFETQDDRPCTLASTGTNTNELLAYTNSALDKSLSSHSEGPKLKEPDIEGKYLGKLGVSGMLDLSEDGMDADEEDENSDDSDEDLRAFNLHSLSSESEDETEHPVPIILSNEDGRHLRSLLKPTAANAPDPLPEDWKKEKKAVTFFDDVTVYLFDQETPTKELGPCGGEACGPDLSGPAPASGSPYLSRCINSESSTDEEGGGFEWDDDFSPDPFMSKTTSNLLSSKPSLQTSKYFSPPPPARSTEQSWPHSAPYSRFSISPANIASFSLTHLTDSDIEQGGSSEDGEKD
UniProt Q12851: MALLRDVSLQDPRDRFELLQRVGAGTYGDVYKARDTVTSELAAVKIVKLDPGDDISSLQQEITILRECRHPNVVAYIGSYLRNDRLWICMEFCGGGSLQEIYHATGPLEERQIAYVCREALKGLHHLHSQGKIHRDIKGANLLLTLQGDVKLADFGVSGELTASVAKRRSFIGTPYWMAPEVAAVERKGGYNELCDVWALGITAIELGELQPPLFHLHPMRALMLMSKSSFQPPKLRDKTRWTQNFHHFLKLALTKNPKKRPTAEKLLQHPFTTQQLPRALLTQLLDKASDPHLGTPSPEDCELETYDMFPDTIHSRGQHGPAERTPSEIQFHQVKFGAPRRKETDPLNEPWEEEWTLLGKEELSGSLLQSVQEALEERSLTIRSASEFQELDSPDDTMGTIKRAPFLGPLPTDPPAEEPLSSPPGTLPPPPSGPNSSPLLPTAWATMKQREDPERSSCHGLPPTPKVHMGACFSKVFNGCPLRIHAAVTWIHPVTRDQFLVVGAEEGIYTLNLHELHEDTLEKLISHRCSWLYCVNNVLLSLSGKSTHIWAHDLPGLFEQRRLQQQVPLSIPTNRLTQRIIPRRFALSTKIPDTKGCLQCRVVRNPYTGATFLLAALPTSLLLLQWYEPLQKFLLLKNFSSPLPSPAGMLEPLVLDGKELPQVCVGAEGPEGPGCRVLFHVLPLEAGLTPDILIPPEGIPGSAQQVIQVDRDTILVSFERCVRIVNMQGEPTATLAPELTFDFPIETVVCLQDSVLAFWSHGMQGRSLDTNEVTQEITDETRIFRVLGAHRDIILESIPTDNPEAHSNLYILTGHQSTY

Experiments:
Test in all cases: kinase-Nluc reporter destabilization hit call (1 = scored as downregulated) (binary); higher = compound decreases kinase abundance
Conditions in all cases: K562; 2-18 h
[1] = molecular target: ERN1 (UniProt O75460)
[2] = molecular target: FGFR1 (UniProt P11362)
[3] = molecular target: FGFR2 (UniProt P21802)
[4] = molecular target: FGFR3 (UniProt P22607)
[5] = molecular target: FGR (UniProt P09769)
[6] = molecular target: FLT3 (UniProt P36888)
[7] = molecular target: FYN (UniProt P06241)
[8] = molecular target: GSK3A (UniProt P49840)
[9] = molecular target: HER2 (UniProt P04626)
[10] = molecular target: INSRR (UniProt P14616)
[11] = molecular target: IRAK3 (UniProt Q9Y616)
[12] = molecular target: JAK1 (UniProt P23458)
[13] = molecular target: LCK (UniProt P06239)
[14] = molecular target: LIMK1 (UniProt P53667)
[15] = molecular target: LIMK2 (UniProt P53671)
[16] = molecular target: LMTK2 (UniProt Q8IWU2)
[17] = molecular target: LYN (UniProt P07948)
[18] = molecular target: MAP2K1 (UniProt Q02750)
[19] = molecular target: MAP2K2 (UniProt P36507)
[20] = molecular target: MAP4K2 (UniProt Q12851)

Structure (SMILES) | kinase-Nluc reporter destabilization hit call [1] | kinase-Nluc reporter destabilization hit call [2] | kinase-Nluc reporter destabilization hit call [3] | kinase-Nluc reporter destabilization hit call [4] | kinase-Nluc reporter destabilization hit call [5] | kinase-Nluc reporter destabilization hit call [6] | kinase-Nluc reporter destabilization hit call [7] | kinase-Nluc reporter destabilization hit call [8] | kinase-Nluc reporter destabilization hit call [9] | kinase-Nluc reporter destabilization hit call [10] | kinase-Nluc reporter destabilization hit call [11] | kinase-Nluc reporter destabilization hit call [12] | kinase-Nluc reporter destabilization hit call [13] | kinase-Nluc reporter destabilization hit call [14] | kinase-Nluc reporter destabilization hit call [15] | kinase-Nluc reporter destabilization hit call [16] | kinase-Nluc reporter destabilization hit call [17] | kinase-Nluc reporter destabilization hit call [18] | kinase-Nluc reporter destabilization hit call [19] | kinase-Nluc reporter destabilization hit call [20]
NC(=O)c1nc(-c2c(F)cccc2Cl)oc1Nc1ccc(C(=O)N2CCOCC2)cc1 (10 µM) | inactive: 0 | inactive: 0 | inactive: 0 | inactive: 0 | inactive: 0 | inactive: 0 | inactive: 0 | inactive: 0 | inactive: 0 | inactive: 0 | inactive: 0 | inactive: 0 | inactive: 0 | inactive: 0 | inactive: 0 | inactive: 0 | inactive: 0 | inactive: 0 | inactive: 0 | inactive: 0
CNC[C@@H](NC(=O)c1ccc(-c2nc([C@H]3CC[C@H](O)[C@@H](F)C3)cnc2N)cc1F)c1cc(F)cc(Br)c1 [Rineterkib] (10 µM) | inactive: 0 | inactive: 0 | inactive: 0 | inactive: 0 | inactive: 0 | inactive: 0 | inactive: 0 | inactive: 0 | inactive: 0 | inactive: 0 | inactive: 0 | inactive: 0 | inactive: 0 | inactive: 0 | inactive: 0 | inactive: 0 | inactive: 0 | inactive: 0 | inactive: 0 | inactive: 0
CC(C)Cn1cc(C#N)c2cc(Oc3ccc(NC(=O)[C@@H]4CCCN4)cc3)ccc21 (10 µM) | inactive: 0 | inactive: 0 | inactive: 0 | inactive: 0 | inactive: 0 | inactive: 0 | inactive: 0 | inactive: 0 | inactive: 0 | inactive: 0 | inactive: 0 | inactive: 0 | inactive: 0 | inactive: 0 | inactive: 0 | inactive: 0 | inactive: 0 | inactive: 0 | inactive: 0 | inactive: 0
N#C/C(=C\c1ccc[nH]1)c1ccc(Cl)c(Cl)c1 (2.5 µM) | inactive: 0 | inactive: 0 | inactive: 0 | inactive: 0 | inactive: 0 | inactive: 0 | inactive: 0 | inactive: 0 | inactive: 0 | inactive: 0 | inactive: 0 | inactive: 0 | inactive: 0 | inactive: 0 | inactive: 0 | inactive: 0 | inactive: 0 | inactive: 0 | inactive: 0 | inactive: 0
O=c1sn(-c2cccc3ccccc23)c(=O)n1Cc1ccccc1 [Tideglusib] (10 µM) | inactive: 0 | inactive: 0 | inactive: 0 | inactive: 0 | inactive: 0 | inactive: 0 | inactive: 0 | inactive: 0 | inactive: 0 | inactive: 0 | inactive: 0 | inactive: 0 | inactive: 0 | inactive: 0 | inactive: 0 | inactive: 0 | inactive: 0 | inactive: 0 | inactive: 0 | inactive: 0
O=C1C(=Cc2ccc(O)c(O)c2)Oc2ccccc21 (2.5 µM) | inactive: 0 | inactive: 0 | inactive: 0 | inactive: 0 | inactive: 0 | inactive: 0 | inactive: 0 | inactive: 0 | inactive: 0 | inactive: 0 | inactive: 0 | inactive: 0 | inactive: 0 | inactive: 0 | inactive: 0 | inactive: 0 | inactive: 0 | inactive: 0 | inactive: 0 | inactive: 0
Cc1cc([N+](=O)[O-])c(NS(=O)(=O)c2cccc(C(=O)O)c2)cc1-c1cccnc1 [Alofanib] (10 µM) | inactive: 0 | inactive: 0 | inactive: 0 | inactive: 0 | inactive: 0 | inactive: 0 | inactive: 0 | inactive: 0 | inactive: 0 | inactive: 0 | inactive: 0 | inactive: 0 | inactive: 0 | inactive: 0 | inactive: 0 | inactive: 0 | inactive: 0 | inactive: 0 | inactive: 0 | inactive: 0
O=C1c2c(O)cc(O)cc2O[C@H](c2cc(O)c(O)c(O)c2)[C@H]1O [Dihydromyricetin] (10 µM) | inactive: 0 | inactive: 0 | inactive: 0 | inactive: 0 | inactive: 0 | inactive: 0 | inactive: 0 | inactive: 0 | inactive: 0 | inactive: 0 | inactive: 0 | inactive: 0 | inactive: 0 | inactive: 0 | inactive: 0 | inactive: 0 | inactive: 0 | inactive: 0 | inactive: 0 | inactive: 0
O=C(c1ccc(NS(=O)(=O)c2cccc3cccnc23)cc1)N1CCN(CC2CC2)CC1 [Mitapivat] (10 µM) | inactive: 0 | inactive: 0 | inactive: 0 | inactive: 0 | inactive: 0 | inactive: 0 | inactive: 0 | inactive: 0 | inactive: 0 | inactive: 0 | inactive: 0 | inactive: 0 | inactive: 0 | inactive: 0 | inactive: 0 | inactive: 0 | inactive: 0 | inactive: 0 | inactive: 0 | inactive: 0
CC[C@H](C)[C@H](NC(=O)[C@H](CCCCN)NC(=O)[C@H](CC(C)C)NC(=O)[C@@H]1CCCN1C(=O)[C@H](CCC(=O)O)NC(=O)[C@H](Cc1ccc(O)cc1)NC(=O)[C@@H](NC(=O)[C@H](CO)NC(=O)CNC(=O)[C@H](CO)NC(=O)[C@H](CCCN=C(N)N)NC(=O)[C@H](CCCCN)NC(=O)[C@@H](NC(=O)[C@@H](N)CCCN=C(N)N)[C@@H](C)O)C(C)C)C(=O)O [Malantide] (10 µM) | inactive: 0 | inactive: 0 | inactive: 0 | inactive: 0 | inactive: 0 | inactive: 0 | inactive: 0 | inactive: 0 | inactive: 0 | inactive: 0 | inactive: 0 | inactive: 0 | inactive: 0 | inactive: 0 | inactive: 0 | inactive: 0 | inactive: 0 | inactive: 0 | inactive: 0 | inactive: 0
COC(=O)[C@]1(C)CC[C@]2(C(=O)O[C@@H]3O[C@H](CO)[C@@H](O)[C@H](O)[C@H]3O)CC[C@]3(C)C(=CC[C@@H]4[C@@]5(C)C[C@H](O)[C@H](O[C@@H]6OC[C@@H](O[C@@H]7O[C@H](CO)[C@@H](O)[C@H](O)[C@H]7O)[C@H](O)[C@H]6O)[C@@](C)(CO)C5CC[C@]43C)[C@H]2C1 (stereo not given in full) [Esculentoside H] (10 µM) | inactive: 0 | inactive: 0 | inactive: 0 | inactive: 0 | inactive: 0 | inactive: 0 | inactive: 0 | inactive: 0 | inactive: 0 | inactive: 0 | inactive: 0 | inactive: 0 | inactive: 0 | inactive: 0 | inactive: 0 | inactive: 0 | inactive: 0 | inactive: 0 | inactive: 0 | inactive: 0
O=C(NCc1cccc(O)c1)c1cc2cc(F)ccc2[nH]1 (10 µM) | inactive: 0 | inactive: 0 | inactive: 0 | inactive: 0 | inactive: 0 | inactive: 0 | inactive: 0 | inactive: 0 | inactive: 0 | inactive: 0 | inactive: 0 | inactive: 0 | inactive: 0 | inactive: 0 | inactive: 0 | inactive: 0 | inactive: 0 | inactive: 0 | inactive: 0 | inactive: 0
Cc1c(Br)c(Br)c2c3c1nc(N1CCNCC1)n3CCC2 [SEL120-34A (monohydrochloride)] (2.5 µM) | inactive: 0 | inactive: 0 | inactive: 0 | inactive: 0 | inactive: 0 | inactive: 0 | inactive: 0 | inactive: 0 | inactive: 0 | inactive: 0 | inactive: 0 | inactive: 0 | inactive: 0 | inactive: 0 | inactive: 0 | inactive: 0 | inactive: 0 | inactive: 0 | inactive: 0 | inactive: 0
COc1cc(-c2cnc(N)c(-c3ccc(NC(=O)c4cn(CC5CCOCC5)cc(-c5ccc(C)cn5)c4=O)cc3F)c2)ccc1OC[C@H]1COCCO1 [DS-1205b (free base)] (10 µM) | inactive: 0 | inactive: 0 | inactive: 0 | inactive: 0 | inactive: 0 | inactive: 0 | inactive: 0 | inactive: 0 | inactive: 0 | inactive: 0 | inactive: 0 | inactive: 0 | inactive: 0 | inactive: 0 | inactive: 0 | inactive: 0 | inactive: 0 | inactive: 0 | inactive: 0 | inactive: 0
Cc1nc(Nc2ncc(C(=O)Nc3c(C)cccc3Cl)s2)cc(N2CCN(C(=O)CCCCCCC(=O)N[C@H](C(=O)N3C[C@H](O)C[C@H]3C(=O)NCc3ccc(-c4scnc4C)cc3)C(C)(C)C)CC2)n1 (2.5 µM) | inactive: 0 | inactive: 0 | inactive: 0 | inactive: 0 | active: 1 | inactive: 0 | inactive: 0 | inactive: 0 | inactive: 0 | inactive: 0 | inactive: 0 | inactive: 0 | inactive: 0 | inactive: 0 | inactive: 0 | inactive: 0 | inactive: 0 | inactive: 0 | inactive: 0 | inactive: 0
Cc1ccc(CNC(=O)N2CCC[C@]3(CCN(Cc4ccc(Cl)c(Cl)c4)C3)C2)cc1 (10 µM) | inactive: 0 | inactive: 0 | inactive: 0 | inactive: 0 | inactive: 0 | inactive: 0 | inactive: 0 | inactive: 0 | inactive: 0 | inactive: 0 | inactive: 0 | inactive: 0 | inactive: 0 | inactive: 0 | inactive: 0 | inactive: 0 | inactive: 0 | inactive: 0 | inactive: 0 | inactive: 0
O=C(CCc1ccc2n1[B-](F)(F)[N+]1=C(c3ccc[nH]3)C=CC1=C2)ON1C(=O)CCC1=O [Py-BODIPY-NHS ester] (2.5 µM) | inactive: 0 | inactive: 0 | inactive: 0 | inactive: 0 | inactive: 0 | inactive: 0 | inactive: 0 | inactive: 0 | inactive: 0 | inactive: 0 | inactive: 0 | inactive: 0 | inactive: 0 | inactive: 0 | inactive: 0 | inactive: 0 | inactive: 0 | inactive: 0 | inactive: 0 | inactive: 0

Single records, as listed above. Order of values: kinase-Nluc reporter destabilization hit call [1]	kinase-Nluc reporter destabilization hit call [2]	kinase-Nluc reporter destabilization hit call [3]	kinase-Nluc reporter destabilization hit call [4]	kinase-Nluc reporter destabilization hit call [5]	kinase-Nluc reporter destabilization hit call [6]	kinase-Nluc reporter destabilization hit call [7]	kinase-Nluc reporter destabilization hit call [8]	kinase-Nluc reporter destabilization hit call [9]	kinase-Nluc reporter destabilization hit call [10]	kinase-Nluc reporter destabilization hit call [11]	kinase-Nluc reporter destabilization hit call [12]	kinase-Nluc reporter destabilization hit call [13]	kinase-Nluc reporter destabilization hit call [14]	kinase-Nluc reporter destabilization hit call [15]	kinase-Nluc reporter destabilization hit call [16]	kinase-Nluc reporter destabilization hit call [17]	kinase-Nluc reporter destabilization hit call [18]	kinase-Nluc reporter destabilization hit call [19]	kinase-Nluc reporter destabilization hit call [20]
Cc1cc([N+](=O)[O-])c(NS(=O)(=O)c2cccc(C(=O)O)c2)cc1-c1cccnc1 [Alofanib] (10 µM) as listed: inactive: 0	inactive: 0	inactive: 0	inactive: 0	inactive: 0	inactive: 0	inactive: 0	inactive: 0	inactive: 0	inactive: 0	inactive: 0	inactive: 0	inactive: 0	inactive: 0	inactive: 0	inactive: 0	inactive: 0	inactive: 0	inactive: 0	inactive: 0
NC(=O)c1nc(-c2c(F)cccc2Cl)oc1Nc1ccc(C(=O)N2CCOCC2)cc1 (10 µM) as listed: inactive: 0	inactive: 0	inactive: 0	inactive: 0	inactive: 0	inactive: 0	inactive: 0	inactive: 0	inactive: 0	inactive: 0	inactive: 0	inactive: 0	inactive: 0	inactive: 0	inactive: 0	inactive: 0	inactive: 0	inactive: 0	inactive: 0	inactive: 0
